Values quoted from earlier work as cited in patent publication US20040122083A1, “Antitubulin assembly and cell growth inhibitor denominated "dioxostatin"” (priority 2003, published 2004).
Some results were stated once for a whole list of compounds, not compound by compound. At least one compound was matched to its structure with a doubt left.

Tested on: microtubule assembly
Settings: reported 1987 and 1989; read-out: inhibitor of microtubule assembly IC50; cited from earlier work

Row | SMILES | IC50
1 | COc1ccc(/C=C\c2cc(OC)c(OC)c(OC)c2)c(O)c1O [Compound 1a, combretastatin A-1] | 2000 to 3000 nM
2 | COc1ccc(/C=C\c2cc(OC)c(OC)c(OC)c2)cc1O [Compound 1b, combretastatin A-4] | 2000 to 3000 nM
